# Assay results reported in the RNAGym collection of RNA variant scans (doi:10.1126/science.aae0568).
# This sample is rich in variants without activity.
# B1: tRNA (parent)
# chain: GUUCCGUUGGCGUAAUGGUAACGCGUCUCCCUCCUAAGGAGAAGACUGCGGGUUCGAGUCCCGUACGGAACG
# Variants of: B1
# Assay: yeast fitness relative to wild type (ratio to wild type); higher = fitter; tRNA-Arg(CCU), competitive growth, 37 C, YPD
# Summary of the method: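 A pool of Saccharomyces cerevisiae strains, each with a tRNA-Arg(CCU) gene variant at the native genomic locus, was competed in YPD at 37°C for 24 hours across six parallel replicates. The variants had been chemically synthesised at a 3% per-site mutation rate over 69 sites, and gene amplicons before and after competition were read by 100-nucleotide paired-end sequencing. Darwinian fitness relative to wild type rested on changes in genotype frequencies. Genotypes required ≥ 100 starting reads, and estimates < 0.5 were set to 0.5.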
row,Variant,yeast fitness
1,GAUCCGUUGGCGUUAUGGUAGCGCGUCUCCCUCCUAAGGAGAAGAGUGCGGGUUCGUGUCCCGUACGGCACG [U2A A14U A21G C46G A57U A69C],≤ 0.5
2,GAUCCGUUGGCGUUAUGGUAACGCGUCUACCUCCUAAGGAGAAGACUGAGGGUUCGAGUCCCGUACGGAACG [U2A A14U C29A C49A],≤ 0.5
3,GAUCCGUUGGCGUUAUGGUAACGCGUCUCCCUCCUAAGGAGAAGACUGCGGGUUCAAGUCCCGUACGGAACG [U2A A14U G56A],≤ 0.5
4,GAUCCGUUGGCGUACUGGUAACGCGUUACCCUCCUAAGGUGAAGACUGCGGGUUCGAGUCCCGUACGGAACG [U2A A15C C27U U28A A40U],≤ 0.5
5,GAUCCGUUGGCGUAGUGGUAACGCGUCUCCCUCCUAUGGAGAAGACUGCGGGUUCGAGUACCGUACGGAACG [U2A A15G A37U C60A],≤ 0.5
6,GAUCCGUUGGCGUAUUGGUAACGCGUCUCUCUCCUAAGGAGAUGACUGCGGGUUCCAGUCCCGUACGGAACG [U2A A15U C30U A43U G56C],≤ 0.5
7,GAUCCGUUGGCGUAAUGGUACUGCGUCUCCCUCCUAAGGAGAAGACUGCGGGUUCGAGUCCCGUACGGAACG [U2A A21C C22U],≤ 0.5
8,GAUCCGUUGGCGUAAUGGUACCGCGUCUUCCUCCUAAGGAGAAGACUGCGGGUUCGAGUCCCGUACGGAACG [U2A A21C C29U],≤ 0.5
9,GAUUCGUUGGCGUAAUGGUAACGCGUCUGCCUGCUAAGGAGAAGACUGCGGCUUCGAGUCCCGUACGGAACG [U2A C4U C29G C33G G52C],≤ 0.5
10,GAUCAGUUGGCGUAAUGGUAACGCGUCUCCCUCCUAAGGAGAAGACUGCGGGUUCGAGUUCCGUACGGAACG [U2A C5A C60U],≤ 0.5
11,GAUCAGUUCGCGUAACGGUAACGCCUCUCCCUCCUAAGGAGAAGACUGCGGGUUCGAGUCCCGUACGCAACG [U2A C5A G9C U16C G25C G68C],0.586
12,GAUCAGUUGGCGUAACGGUAACGCGUCUCACUCCUAAGGAGAAGACUGCGGGUUCGAGUCCCGUACGGAACG [U2A C5A U16C C30A],≤ 0.5
13,GAUCCGUUGGGGUAAUGGUAGCGCGUCUCCCUCCUAAGGAGAAGACUGCGGGUUCAAGUCCCGUACGGAACG [U2A C11G A21G G56A],≤ 0.5
14,GAUCCGUUGGGGUAAUGGUAACGCGUCUCCCUCGUAAGGAGAAGACUGCGGGUUCGAGUCCCGGACGGAACG [U2A C11G C34G U64G],≤ 0.5
15,GAUCCGUUGGCGUAAUGGUAACGGGUCUCCCUCCUAAGGAGAAGACUGCGGGUUCGAGUCCCGUACGGAACG [U2A C24G],0.643
16,GAUCCGUUGGCGUAAUGGUAACGGGUCUCCCUCCUAAGGAGAUGAUUGCGGGUUCGAGUCCCGUACCGAACG [U2A C24G A43U C46U G67C],≤ 0.5
17,GAUCCGUUGGCGUAAUGGUAACGCGUAUCCCUCCUAAGGAGAAGACUGGGGGUUCGAGUCCCGUACGGAACG [U2A C27A C49G],≤ 0.5
18,GAUCCGUUGGCGUAAUGGUAACGCGUCUACCCCCUGAGGAGAAGUCUGCGGGUUCGAGUCCCGUACGGAACG [U2A C29A U32C A36G A45U],≤ 0.5
19,GAUCCGUUGGCGUAAUGGUAACGCGUCUCACUCCUAAGGAGCAGACUGCGGGUUCGAGUCCCGUACGGAACG [U2A C30A A42C],≤ 0.5

row,Variant,yeast fitness
1,GAUCCGUUGGCGUAAUGGUAACGCGUCUCCUUCGUAAGGAGAAGACUGAAGGUUCGAGUCCCGUACGGAACG [U2A C31U C34G C49A G50A],≤ 0.5
2,GAUCCGUUGGCGUAAUGGUAACGCGUCUCCCUCCUAAGGAGAAGAAUGCGGGUUCGAGUCCCGUACGGAACG [U2A C46A],1.03
3,GAUCCGUUGGCGUAAUGGUAACGCGUCUCCCUCCUAAGGAGAAGAAUGCGGGUUCGAAUCCCGUACGGAACG [U2A C46A G58A],0.622
4,GAUCCGUUGGCGUAAUGGUAACGCGUCUCCCUCCUAAGGAGAAGACUGGGGGUUGGAGUCCCGUACGGAACG [U2A C49G C55G],≤ 0.5
5,GAUCCGUUGGCGUAAUGGUAACGCGUCUCCCUCCUAAGGAGAAGACUGCGGGUUCGAGUCUCGUACGGAACG [U2A C61U],0.768
6,GAUCCAUUGGCGUAAUGGUCACGCGUCUCCCUCCUAAGGAGAAGACUGCGGGUUCGAGUCCCGUACGGGACG [U2A G6A A20C A69G],≤ 0.5
7,GAUCCCUUGGCGUAACGGUAACGUGUCUCCCUCCUAAGGAGAAGACUGCGGGUUCGAGUCCCGUACGAAACG [U2A G6C U16C C24U G68A],≤ 0.5
8,GAUCCGUUCGCAUAAUGGUAACGCGUCUCCCUCCUAAGGAGCAGAAUGCGGGUUCGAGUCCCGUUCGGAACG [U2A G9C G12A A42C C46A A65U],≤ 0.5
9,GAUCCGUUGACGUAAUCGUAACGCGUCUCCCUCCCAAGGAGAAGACUGCGGGUUCGAGUCCUGUACGGACCG [U2A G10A G17C U35C C62U A70C],≤ 0.5
10,GAUCCGUUGGCAUAAUGGUGCCGCGUCUACCUCCUAAGGAGAAGACUGCGGGUUCGAGUCCCGUACGGAACG [U2A G12A A20G A21C C29A],≤ 0.5
11,GAUCCGUUGGCAUAAUGGUACCGCGUCUCCCUCCUAAGGAGAAGACUGCGGGUUCGAGUCCCGUACGGAACG [U2A G12A A21C],0.515
12,GAUCCGUUGGCGUAAUGGUAACACGUCUGCCUCCUAAGGAGAAGACUGCGGGUUCGAGUCUCGUACGGAACG [U2A G23A C29G C61U],≤ 0.5
13,GAUCCGUUGGCGUAAUGGUAACGCGUCUCCCUCCUAAGGAGAAGACUGCAGGUUCGAGUCCCGUACGGAACG [U2A G50A],0.858
14,GAUCCGUUGGCGUAAUGGUAACGCGUCUCCCUCCUAAGGAGAAGACUGCGGGUUCGAAUCCCGGACGGAACG [U2A G58A U64G],≤ 0.5
15,GACCCGUUGGCGUAAUGGUAACGGGUCUCCCUGCUAAGGAGAAGACUGCGGGUUCGAGUCCCGUAUGGAUCG [U2A U3C C24G C33G C66U A70U],≤ 0.5
16,GAUCCGAUGACGUAAUGGUAACGCGUCUCCCUCCUAAGGACUAGAAUGCGGGUUCGAGUCGCGUACGGAACG [U2A U7A G10A G41C A42U C46A C61G],≤ 0.5
17,GAUCCGUUGGCGUAAUGGACACGCGACUCCCUCCUAAGGAGAAGACUGCGGGUUCGCGUCCCGUAAGGAACG [U2A U19A A20C U26A A57C C66A],≤ 0.5
18,GAUCCGUUGGCGUAAUGGUAACGCGUCCCCCUCCUAAGGAGAAGACUGCGGGUUCGAGUCCCGUACUGAACG [U2A U28C G67U],≤ 0.5
